Results on 42 sequences are retold here after publication PMC7819943, “Rice protein-binding microarrays: a tool to detect cis-acting elements near promoter regions in rice”.

Amino acid sequences for entries named in this document (tags omitted).
UniProt Q0JBA9, entry or part of it: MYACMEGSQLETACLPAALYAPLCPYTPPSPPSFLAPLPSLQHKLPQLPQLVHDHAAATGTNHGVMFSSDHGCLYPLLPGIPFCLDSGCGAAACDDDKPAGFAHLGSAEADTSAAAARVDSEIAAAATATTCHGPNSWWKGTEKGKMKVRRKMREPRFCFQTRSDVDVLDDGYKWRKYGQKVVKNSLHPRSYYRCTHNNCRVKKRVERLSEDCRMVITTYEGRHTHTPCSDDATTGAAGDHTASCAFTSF

The list shows a part of the results.

The assay concerns the target OsWRKY34 (Oryza sativa, UniProt Q0JBA9 1-250). As to the kind of experiment: protein-binding microarray (RPBM); PBS, 2% BSA, 51.3 ng/ul salmon testes DNA, 50 uM zinc acetate, 200 nM TF, 25 C, 1 h; high values mean tight binding. The conditions noted are these: protein: recombinant; tags: N-terminal polyhistidine and DsRed monomer fusion (pET32a); label: CyDye5-dUTP incorporated in the synthesized complementary strand; 3' TTTTT single-stranded linker to array surface; dsDNA, one strand shown. Summed up: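 The binding signal for each feature is its fluorescence intensity in arbitrary units. An Axon 4000B scanner was used to read a custom Agilent array that had been made double-stranded with Cy5-dUTP primer extension, blocked with 2% BSA, incubated at 25 °C for 1 h with 200 nM protein in PBS, 2% BSA, salmon testes DNA and 50 µM zinc acetate, and washed. The protein was an N-terminal polyhistidine–DsRed transcription factor fusion from E. coli BL21-CodonPlus, purified on Ni–NTA.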
In the case of “GCTAGTGGGGTGAGGGTGTGTGTTTGGTTGGTGAGCAATGCGGAGTCACCTAGTGCAG”, the binding signal was 8710 fluorescence intensity (a.u.).
On to “TTCATTTGGCCCTTCATATATGCTCTCTCCGTAAAAAAAACGGAGTCACCTAGTGCAG”, for which the binding signal is 9480 fluorescence intensity (a.u.).
Under “CATTCCACCTAGCTTAATTTAATTAATTAATCCTTTCAGCCGGAGTCACCTAGTGCAG” stands 9540 fluorescence intensity (a.u.); under “GTTCCCAACGGTCACCTCGTCGTCGTTGCCAAATCTGCCACGGAGTCACCTAGTGCAG”, 8670 fluorescence intensity (a.u.).
Under “TTCACGACCTTCCATCCGCCGTTCCGGCTATTTCCCTTACCGGAGTCACCTAGTGCAG” stands 8120 fluorescence intensity (a.u.).
Under “CTGGTTCGGGAATTTCTGGGTGTATAGGGAAATAATTTATCGGAGTCACCTAGTGCAG” stands 8060 fluorescence intensity (a.u.).
With “TAGGGTTGGTTGAGTGAATCAGGTGAAATACGTTTTTTGTCGGAGTCACCTAGTGCAG”, the binding signal is 9210 fluorescence intensity (a.u.).
For “TTGAAACCGTCTTGGGATTTATTTTGCATTGGTTTTGATACGGAGTCACCTAGTGCAG” the value was 8070 fluorescence intensity (a.u.).
For “GGGGTGTTTAGATTCAGTGGTGTAAAGTTTTAACGTGTCACGGAGTCACCTAGTGCAG” the value was 10300 fluorescence intensity (a.u.); for “TCCGTTTCGGAATGTTTGACGCCGTTGACTTTTTATTACACGGAGTCACCTAGTGCAG”, 25400 fluorescence intensity (a.u.).
As to “TCCCAGTATATCTGAAAAACCTCATCCCGTTTCACCATTTCGGAGTCACCTAGTGCAG”, the binding signal was 8040 fluorescence intensity (a.u.).
Under “CAGTATCATTCGCAGGCCTGTAGCTTTCCTACATTTGTCCCGGAGTCACCTAGTGCAG” stands 9320 fluorescence intensity (a.u.); under “CAACTCGTACTATCCCTTTGCACAGCCAGCAGGTTAACCACGGAGTCACCTAGTGCAG”, 11100 fluorescence intensity (a.u.); under “TTCCTTTTCTTGGGGTCGAGGGCAACAGTATCCCTCACTTCGGAGTCACCTAGTGCAG”, 10800 fluorescence intensity (a.u.).
For “AGTTTATTGTACCTGCTCTTATTCCACTCATATTATTACACGGAGTCACCTAGTGCAG” the value was 9420 fluorescence intensity (a.u.); for “GCGCCTCTGTCCGCCTCCGCCGCTGCCCTCCGCCACCTCGCGGAGTCACCTAGTGCAG”, 8880 fluorescence intensity (a.u.).
With “TACATCGGTTTTGATAGTTGAGGTACCCGTCGTATTTGGTCGGAGTCACCTAGTGCAG”, the binding signal is 8390 fluorescence intensity (a.u.).
As for “CTCCGCCTCCGCCTCCGCGTGATCTCTTCTCGCTTCACGCCGGAGTCACCTAGTGCAG”, the binding signal was 9160 fluorescence intensity (a.u.).
Consider “TTTTTGTTTAATTGTGTGGTCTAGATAGTCTAGGATCATCCGGAGTCACCTAGTGCAG”, for which the binding signal is 8250 fluorescence intensity (a.u.).
For “GCAGCATCACACGTACTCAGAATTCAGAAACACACAACCACGGAGTCACCTAGTGCAG” the value was 8660 fluorescence intensity (a.u.); for “ATATGCATGCCATTATCTCTTCTTCAGGGACCAACTTATACGGAGTCACCTAGTGCAG”, 8930 fluorescence intensity (a.u.); for “ATCCACCAACATTCTCTTCCCAACCAATCACAACCCTCCACGGAGTCACCTAGTGCAG”, 8140 fluorescence intensity (a.u.).
For the sequence “CGTGGCCTAGTTTTGCAAGATTAATCTGGACCGTTGATAGCGGAGTCACCTAGTGCAG”, the binding signal was 8440 fluorescence intensity (a.u.).
For “ACACACCCCGTGCCACGTCGGCCTCACACCCCTCAGGTTACGGAGTCACCTAGTGCAG” the value was 8840 fluorescence intensity (a.u.); for “AAGAACTGATCATCGACTGACATCACTACCTTTTTCATATCGGAGTCACCTAGTGCAG”, 8610 fluorescence intensity (a.u.).
Take “ACTGCTCCTCGCTTTCGTTTCTCCGAGAGGTTTAGGTTAACGGAGTCACCTAGTGCAG”: the binding signal is 11300 fluorescence intensity (a.u.).
For “TTCCGCACACTCCACTCCACCCCACCCGCTGCCTCTGCCTCGGAGTCACCTAGTGCAG” the value was 8710 fluorescence intensity (a.u.); for “AACATTTCGCTTCTATCTGCCGCTTATAAGCCAAAACTTACGGAGTCACCTAGTGCAG”, 10200 fluorescence intensity (a.u.).
Under “CGCCTCCGCTTCGATCGCTTCCTCCGTTGCCGCCGATCCCCGGAGTCACCTAGTGCAG” stands 8100 fluorescence intensity (a.u.); under “GGATATTTCTGACACAGGGCGCGTTTTTTTTTTTTTTATTCGGAGTCACCTAGTGCAG”, 9600 fluorescence intensity (a.u.).
Turning to “CGCCTCACCCACTTCGCCCGCCGCCTCCGTCTCCATCAACCGGAGTCACCTAGTGCAG”, the binding signal was 9760 fluorescence intensity (a.u.).
In the case of “GATTTTTCTTTACATGTTCTTTTTCATCGATCTTTTGAGACGGAGTCACCTAGTGCAG”, the binding signal is 9460 fluorescence intensity (a.u.).
Under “CATATATGCACCCCGGGTCACTAGCTACCTTTACCTTTTTCGGAGTCACCTAGTGCAG” stands 8480 fluorescence intensity (a.u.).
For “GTTGCCGCATTCGCACCGTCTCCGCCTTCATGGCCTGTTTCGGAGTCACCTAGTGCAG” the value was 13700 fluorescence intensity (a.u.).
Turning to “CATGCACGCTTGCTAAACTGTGTGTTTTTTAAAATTTTTCCGGAGTCACCTAGTGCAG”, the binding signal was 8180 fluorescence intensity (a.u.).
Consider “ACCATTCGGCATTCGCTTTGCTAGCCTTTGTTTTCTATATCGGAGTCACCTAGTGCAG”, for which the binding signal is 11300 fluorescence intensity (a.u.).
Under “GGTCCCTAAACTTGTACTGCTGTGTCATCCCGGTCCCTAACGGAGTCACCTAGTGCAG” stands 8680 fluorescence intensity (a.u.).
For “TCCATTTGTCACCCGGTTTTATCCTACGTGGCGCTTTGACCGGAGTCACCTAGTGCAG” the value was 8630 fluorescence intensity (a.u.); for “ATCTGCTAACCATCTTATATTGTTATGTCGTACATTGCACCGGAGTCACCTAGTGCAG”, 10100 fluorescence intensity (a.u.).
Under “AGCTGCAAACAACGAACTCACTCCATTTCATCTTTTTCTACGGAGTCACCTAGTGCAG” stands 8790 fluorescence intensity (a.u.); under “ATTTCATCGCGCTTCCATAGTTACTCTGACTCCCTAGCTACGGAGTCACCTAGTGCAG”, 10000 fluorescence intensity (a.u.).
For the sequence “CAACCGGGCGTCGCTTTAATGGCTTAGTACGCCCTATTTTCGGAGTCACCTAGTGCAG”, the binding signal is 8340 fluorescence intensity (a.u.).
